Hit rate of the full screen: of about 340,000 compounds, about 170 (0.05%) were called active. This list was built around the results that the source calls inconclusive (neither active nor inactive); the mix of calls is not that of the screen. Calls come from the whole dose curve; as a rule, active = well fitted inhibition curve with a large enough effect in the signal ratio, with a control signal flat (not every such curve was filed as active); inconclusive = small, poorly fitted or top-dose-only effect, or effect the other way, or a change in a side signal; inactive = flat fitted curve, though single readings scatter; the % refers to the signal ratio. A potency beside an inconclusive call is a rough fit, not a confirmed value.
test: qHTS Assay to Find Inhibitors of Chronic Active B-Cell Receptor Signaling; conditions: ABC-DLBCL IkBa-CBG/CBR reporter, luminescence ratio (green luciferase fused to IkBa over red control in TMD8 lymphoma cells), 4 h; activity change, negative = inhibition: at 46.1 µM (top of the series) unless noted;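 for activity change, negative = inhibition: plate controls were basal doxycycline-induced cells for no effect and cells given 10 µM MG132 for full effect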
In short: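 Doxycycline induced both beetle luciferases in TMD8 lymphoma cells; IKK-driven degradation limits the IkappaBalpha-fused green signal, while red luminescence normalises for cell number and nonspecific effects. Compounds tested up to 46 uM, 4 hrs.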
Potency is the fitted concentration of half-maximal effect.

Structure (SMILES)	Potency	activity change, negative = inhibition
Cc1ccc(OCc2cc(C(=O)NCCc3cccnc3)no2)cc1C	inconclusive: 4.47 µM [falling, full curve, poor fit]	
CCOC(=O)c1nc(N/N=C/c2ccccc2)sc1Br		inconclusive: 3.82%
COc1ccc(N/N=C(C)/C(=N/O)C(=O)Nc2ccccc2)cc1	inconclusive: 0.2 µM [rising, full curve, poor fit]	
O=C1COc2ccc(C(=O)CSc3nc4ccccc4c(=O)n3-c3ccc(Cl)c(Cl)c3)cc2N1		inactive
CCOc1cccc2cc(C(=O)Nc3cc(C)on3)c(=O)oc12		inconclusive: -8.12%
N#CC1=C(N)Oc2n[nH]c(-c3cccs3)c2C1c1ccncc1 (centres undefined)		inconclusive: 9.33%
O=C(O)c1ccc(/C=C2\SC(=Nc3ccccc3)N(c3ccccc3)C2=O)cc1		inconclusive: -22.7%
CCOc1cccc(/C=N/Nc2ccc(S(=O)(=O)N(CC)CC)cn2)c1O		inconclusive: 5.8%
COc1cc(NC(=O)c2ccccc2Cl)c2ncccc2c1		inactive
CCOC(=O)C1(Cc2cccc(F)c2)CCN(Cc2ccon2)CC1		inconclusive: 1.94%
CN(Cc1ccco1)C(=O)Cn1nc(-c2ccc(Cl)cc2)ccc1=O		inactive
COCCn1ccc2c(OCC(=O)Nc3cccc(NC(C)=O)c3)cccc2c1=O	inconclusive: 20.6 µM [falling, partial curve]	
Cc1c(C(C)C)c(=O)n(-c2ccc(S(=O)(=O)NC3CCCCC3)cc2)n1C	inconclusive: 35.5 µM [falling, single point]	
CC(C)(C)c1ccccc1OCCCCN1CCCC1		inactive
CCCc1cc(=O)n2[nH]c(C(F)(F)F)nc2n1		inconclusive: -18.8%
CCN1CCN(C(=O)C2CCN(C(=O)c3cc4sccc4n3CC)CC2)CC1		inconclusive: -0.541%
CN1C(=O)/C(=C/c2ccccc2F)Sc2ccc(C(=O)NCC3CCCO3)cc21 (centres undefined)		inactive
CCCCCc1ccc(C2=NNC(=O)CC2)cc1		inconclusive: 0.495%
S=c1nc(-c2cc(Cl)cc(Cl)c2)[nH][nH]1		inconclusive: -0.647%
O=C(c1ccc(Cl)cc1)C1CCCN(Cc2cccn2-c2cccnc2)C1 (centres undefined)		inactive
N/C(=N\OC(=O)CCCOc1ccccc1)c1ccncc1		inconclusive: 5.38%
Oc1cc2c(cc1O)[C@@H](c1ccccc1)CNCC2		inactive
Cc1cccc(C(=O)Nc2nsc(N)n2)c1	inconclusive: 1.3 µM [falling, full curve]	
FC(F)(F)c1nc2ccccc2c2nc3ccccc3n12		inconclusive: 6.7%
NNC(=O)c1ccccc1OCCOc1ccccc1	inconclusive: 12.6 µM [falling, partial curve]	
O=C(NCCC1=CCCCC1)C1CCCN(S(=O)(=O)c2cnc[nH]2)C1 (centres undefined)		inconclusive: -19.5%
CCn1c(O)c(C=Nc2ccccc2)n(-c2ccccc2)c1=S		inconclusive: -29.6%

Random excerpt: 2 compounds from above
Structure (SMILES)	Potency	activity change, negative = inhibition
Cc1c(C(C)C)c(=O)n(-c2ccc(S(=O)(=O)NC3CCCCC3)cc2)n1C	inconclusive: 35.5 µM [falling, single point]	
COc1cc(NC(=O)c2ccccc2Cl)c2ncccc2c1		inactive

The listing continues:

Structure (SMILES)	Potency	activity change, negative = inhibition
Cc1cc(NC(=O)C(C)SCC(=O)N(C)Cc2c(F)cccc2Cl)no1 (centres undefined)		inactive
C1CCN=C(NC23CC4CC(CC(C4)C2)C3)CC1		inconclusive: 1.59%
Cc1ccc(C(C)(C)C)cc1S(=O)(=O)Nc1cccc(C(=O)N2CCN(c3ccccn3)CC2)c1		inconclusive: -14.3%
O=C(NNc1nc(=O)c2cccnc2s1)c1ccccc1O	inconclusive: 0.708 µM [rising, full curve, poor fit]	
c1ccc(-n2nnc(-c3cccnc3)n2)cc1	inconclusive: 31.6 µM [falling, single point]	
CCCc1nccn1S(=O)(=O)c1cc(OC)ccc1OC		inconclusive: -47.8%
Cc1cc(C)nc(SCC(=O)Nc2ccc(S(=O)(=O)Nc3ncccn3)cc2)n1	inconclusive: 35.5 µM [rising, single point]	
CCOC(=O)Cn1ccc(NC(=O)COc2ccc(F)cc2F)n1		inconclusive: 330%
CN(C)c1ccc(C(=O)NCc2ccc3c(c2)CCN3C(=O)c2ccc(Cl)cc2)cc1	inconclusive: 0.501 µM [rising, full curve, poor fit]	
CN1CCc2c1nc1ccccc1c2NC(=O)CN1CCCC1		inactive
CO/N=C/C(=N\Nc1cc(OC)cc(OC)c1)C(=O)c1ccccc1		inconclusive: 11.4%
COc1ccc(Cl)cc1-c1nc(-c2ccncc2)no1		inconclusive: 3.47%
Cc1cc2cc3c(cc2nc1SCc1ccccn1)OCCO3		inactive
CCOC(=O)c1cc2c(=O)n3ccccc3nc2n(C(C)C)c1=NC(=O)c1c(-c2c(F)cccc2Cl)noc1C		inactive
O=C(O)c1cccc(N2C(=O)c3ccc(Oc4ccc(Cl)cc4)cc3C2=O)c1		inconclusive: 2.16%
O=C1Nc2ccccc2/C1=N\N=C\c1ccc(O)c(O)c1		inconclusive: -6.66%
O=C(NC12CC3CC(CC(C3)C1)C2)c1ccc([N+](=O)[O-])o1		inactive
COc1cc(C(=O)Nc2nc3ccc4nc(C)sc4c3s2)cc(OC)c1OC	inconclusive: 11.2 µM [falling, partial curve]	
C=CCOC(=O)C1=C[C@H](c2ccc(C(F)(F)F)cc2)[C@@H](CCCO)[C@H](OCC)O1	inconclusive: 2.82 µM [rising, partial curve, poor fit]	
O=C(C1=C[C@@H](C2CC2)C[C@@H](OCc2ccc(CO)cc2)O1)N1CCN(Cc2ccc3c(c2)OCO3)CC1	inconclusive: 3.55 µM [falling, partial curve]	
O=C(NCCCn1ccnc1)C(=O)c1c[nH]c2ccccc12	inconclusive: 7.08 µM [falling, partial curve, poor fit]	
N#CC1=C(N)C(C#N)(C#N)C(c2cccnc2)C2CC(c3ccccc3)CC=C12 (centres undefined)	inconclusive: 35.5 µM [falling, single point]	
Cc1ccc(-n2c(-c3ccccc3)n[nH]c2=S)cc1	inconclusive: 3.66 µM [rising, full curve]	
COc1ccc(NC(=O)COc2ccccc2Cc2ccccc2)cc1S(N)(=O)=O	inconclusive: 22.4 µM [falling, partial curve, poor fit]	
CC(=O)Nc1ccc(S(=O)(=O)Nc2nc3ccccc3nc2Sc2nncn2C)cc1	inconclusive: 35.5 µM [falling, single point]	
CCn1c(C)nc2cc(C(=O)OC(C(F)(F)C(F)F)C(F)(F)C(F)F)ccc21		inconclusive: 24.2%
NS(=O)(=O)c1ccc(Sc2ccc3ccccc3c2)nc1	inconclusive: 35.5 µM [falling, single point]	

Structure (SMILES)	Potency	activity change, negative = inhibition
Nc1ccc(-c2nc3ccc(N)cc3s2)cc1	inconclusive: 22.4 µM [falling, partial curve]	
O=C(Cn1c(NCCCO)nc2ccccc21)c1ccc(Br)cc1	inconclusive: 22.4 µM [falling, partial curve, poor fit]	
O=C(c1cc(C2CC2)nn1-c1ccccc1)N1CCN(c2ccc(O)cc2)CC1		inactive
CCCc1nn(C)c(C(=O)Nc2ccc(C(C)(C)C)cc2)c1Cl		inconclusive: -1.79%
Cn1c(CN2CCCC2)nc2cc(NC(=O)c3ccco3)ccc21		inactive
COc1ccc(N2CCN(Cc3cc4c(cc3Br)OCCO4)CC2)cc1	inconclusive: 11.2 µM [falling, partial curve, poor fit]	
COc1ccc(/C=N/Nc2nc(-c3ccc(C)cc3)c(NC(C)=O)s2)cc1OC	inconclusive: 11.2 µM [falling, partial curve, poor fit]	
Cn1cc(-c2nc3ccccc3[nH]2)c2ccccc21		inconclusive: -6.7%
CCOC(=O)C1(Cc2cccc(Cl)c2)CCCN(C(=O)c2cc(C)n(C)n2)C1 (centres undefined)		inconclusive: -22.9%
Cc1ccc(S(=O)(=O)N2CCC(C(=O)NNC(=O)c3cccnc3)CC2)cc1		inconclusive: 10.9%
CCC1CCCCN1C(=O)Cn1c(=O)n(-c2ccc(Cl)c(Cl)c2)c(=O)c2c(C)c(C(=O)N(C)C)sc21 (centres undefined)		inactive
CCN(CC(=O)Nc1ccc(OC)cc1)C(=O)c1ccc2[nH]c3c(c2c1)CC(C)CC3 (centres undefined)	inconclusive: 18.4 µM [rising, partial curve, poor fit]	
Clc1ccc(-c2nc3ccccn3c2CN2CCOCC2)cc1		inactive
CC(C)OCCCn1c(SCc2ccccc2Cl)nc2c(sc3ccccc32)c1=O	inconclusive: 14.1 µM [rising, partial curve, poor fit]	
Cc1nc(-c2ccc(NC(=O)/C=C\C(=O)O)cc2)cs1		inconclusive: -24.4%
Fc1cccc(Cl)c1CSc1nnc(COc2cccc3cccnc23)o1		inactive
CCOP(=O)(OCC)c1nc(-c2ccc(Br)cc2)oc1N1CCCCC1		inactive
CCCCOc1c(Br)cc(/C=N/O)cc1OCC		inconclusive: -21.7%
COCCNC(=S)N/N=C(\C)c1cccc([N+](=O)[O-])c1	inconclusive: 29.1 µM [falling, single point]	
Brc1c(CSc2nc3ccccc3o2)nc2ncccn12		inactive
CCCCCCCNC(=O)C1(CC2CC(c3ccccc3)=NO2)CCN(C(=O)OC(C)(C)C)CC1 (centres undefined)		inconclusive: 8.08%
O=C(/C=C/c1ccc(Cl)cc1)c1cccnc1	inconclusive: 29.1 µM [falling, single point]	
Cn1cccc1/C=N/NC(=O)c1cc(-c2cccs2)nc2ccccc12		inactive
Cc1cc(Oc2ncccc2[N+](=O)[O-])c2cc(Cl)ccc2n1		inconclusive: -28%
COc1ccccc1CNC(=O)C(NS(=O)(=O)c1ccc2c(c1)oc(=O)n2C)C(C)C (centres undefined)		inconclusive: 4.2%

Filtered by structure, the entries above containing an aryl methoxy group.
Structure (SMILES)	Potency	activity change, negative = inhibition
COc1ccc(N/N=C(C)/C(=N/O)C(=O)Nc2ccccc2)cc1	inconclusive: 0.2 µM [rising, full curve, poor fit]	
COc1cc(NC(=O)c2ccccc2Cl)c2ncccc2c1		inactive
CCCc1nccn1S(=O)(=O)c1cc(OC)ccc1OC		inconclusive: -47.8%
CO/N=C/C(=N\Nc1cc(OC)cc(OC)c1)C(=O)c1ccccc1		inconclusive: 11.4%
COc1ccc(Cl)cc1-c1nc(-c2ccncc2)no1		inconclusive: 3.47%
COc1cc(C(=O)Nc2nc3ccc4nc(C)sc4c3s2)cc(OC)c1OC	inconclusive: 11.2 µM [falling, partial curve]	
COc1ccc(NC(=O)COc2ccccc2Cc2ccccc2)cc1S(N)(=O)=O	inconclusive: 22.4 µM [falling, partial curve, poor fit]	
COc1ccc(N2CCN(Cc3cc4c(cc3Br)OCCO4)CC2)cc1	inconclusive: 11.2 µM [falling, partial curve, poor fit]	
COc1ccc(/C=N/Nc2nc(-c3ccc(C)cc3)c(NC(C)=O)s2)cc1OC	inconclusive: 11.2 µM [falling, partial curve, poor fit]	
CCN(CC(=O)Nc1ccc(OC)cc1)C(=O)c1ccc2[nH]c3c(c2c1)CC(C)CC3 (centres undefined)	inconclusive: 18.4 µM [rising, partial curve, poor fit]	
COc1ccccc1CNC(=O)C(NS(=O)(=O)c1ccc2c(c1)oc(=O)n2C)C(C)C (centres undefined)		inconclusive: 4.2%
